Assay results taken from ChEMBL document CHEMBL3232969, “Structure-based design and synthesis of tricyclic IAP (Inhibitors of Apoptosis Proteins) inhibitors” (Bioorg Med Chem Lett, 2014).

What was measured:
[1] = Aqueous solubility of the compound; details: buffer
[2] = Lipophilicity, log D of the compound; details: octanol/water

CN[C@@H](C)C(=O)N[C@H]1CCC[C@H]2C[C@H]3CCN(C(=O)OCc4ccccc4)C[C@H]3N2C1=O
solubility [1]: > 1000 µM | logD [2]: 1.1
